# Results of single-concentration screens

From ChEMBL document CHEMBL3988442, “University of Dundee, Small-Polar-MMV Screening Library” (2021).

A: 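Whole-parasite assay of Trypanosoma brucei over 72 hours; the read-out is not stated. Tested at 30 µM. The record gives no direction; compounds that gave an IC50 in retests scored well above the rest, so higher reads as stronger inhibition. Values scatter widely below zero; nearly all retest evidence comes from the higher of the two concentrations used. Of about 64,000 compounds tested this way, about 940 (1.5%) reached 50% or more in at least one test.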
B: 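Assay of Toxoplasma gondii numbers, read through their beta-galactosidase reporter with a colour substrate. Concentration: 10 µM. Higher reads as fewer parasites (inferred from which compounds were picked for retests). Of about 67,000 compounds tested this way, about 260 (0.38%) reached 50% or more in at least one test.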

Values are the deposited “Percent Effect”, in %.
How 0% and 100% were set is not recorded. Most values in the screen are low, and negative values occur.
Compounds were drawn at random from those tested, without regard to their results.
A dash means the value is not listed here; it may have been measured.

structure,A,B
Cc1ncsc1-c1nnc(C2CCN(Cc3cccc(F)c3F)CC2)o1,-50.34,16.29
Cc1csc(N2CCN(CC(=O)Nc3cccnc3)CC2C)n1 (stereo not drawn),13.76,-6.738
CNC(=O)CN1CCC(CN(C)Cc2ccc(C)cc2C)CC1,-5.204,16.83
OC1(CNC2CCN(Cc3ccncc3)CC2)CCc2ccccc21 (stereo not drawn),9.894,8.618
Cc1nc2ccccc2nc1CN1CCc2c(nc(C3CC3)n2C)C1,-,10.48
Cc1nc(CN(C)C2CCN(CCc3ccc4c(c3)CCO4)C2)no1 (stereo not drawn),-,5.583
CCCN(Cc1ccccn1)Cc1ccccc1OC,-7.297,10.86
O=c1c2cccc(C(F)(F)F)c2ncn1C1CCNC1 (stereo not drawn),-42.93,-8.678
[H][C@@]12OCCN(C(=O)c3ccc(C)nc3)[C@@]1([H])CC[C@H]2OCCN(C)C,-59.51,16.04
COc1ccc(CNc2cccnc2-n2cccn2)cc1OC,-12.99,0.8046
CCOC1COC2(CCN(Cc3cccc(C#N)c3)CC2)C1.O=C(O)C(F)(F)F (stereo not drawn),-10.32,-11.5
[H][C@@]12C[C@@H](c3nc(C)no3)CN(S(C)(=O)=O)[C@]1([H])CCO2,-19.19,22.55
Cc1cc(N(C)C)nc(C2COCCN2Cc2nccn2C)n1 (stereo not drawn),-7.555,-20.23
O=C(CC1Cn2ncnc2NC1=O)Nc1ccc(F)c(F)c1 (stereo not drawn),-,8.87
C[C@@H]1CN(Cc2ccccc2)CCN1C(=O)NCc1nccs1,-6.528,-1.937
CC(C)(C)n1cc(C2=CCN(CCNC(N)=O)CC2)cn1,-8.79,-3.662
COc1ccccc1OCCc1nnc(NC(=O)C2CC23CCC3)s1 (stereo not drawn),-21.5,29.04
CNc1cc(N2CCCC2CNCc2cnc(C)s2)ncn1 (stereo not drawn),-,3.133
Cc1ccc(C(=O)NCCCNS(C)(=O)=O)cc1-n1cccc1,8.337,0.4525
O=C(O)C(F)(F)F.O=C(O)C(F)(F)F.[H][C@@]12C[C@H](C)O[C@@]1([H])CCN(Cc1ccccn1)C2,-2.942,-28.29
Cc1cc(NC(=O)CN2CCn3c(C)nnc3C2)no1,6.13,1.621
Cc1nc(NC2CCS(=O)(=O)CC2)cc(C2CCCNC2)n1 (stereo not drawn),1.705,-6.868
COc1ccccc1[C@@H]1CN(C(=O)c2csc(C)n2)C[C@H]1C(=O)O,-20.59,-2.501
Cc1cccnc1CN1CCOC(Cc2cccc3ccccc23)C1 (stereo not drawn),19.15,10.42
c1nc2c(c(NC3CCc4ncnn4C3)n1)CCC2 (stereo not drawn),-,-7.769
O=C(Nc1ccc(F)cc1)C1CNCCN1C(=O)CC1CCCCC1 (stereo not drawn),-58.89,-20
COc1cc(Cl)c(CN2CCC(C(N)=O)C2)cc1Cl (stereo not drawn),-1.532,1.59
CC(C)c1ccc2c(c1)CCCN2C(=O)CN(C)S(C)(=O)=O,-17.24,0.8097
COCCOc1ccc(NC(=O)N(CCO)C2CC2)cn1,-12.96,1.039
O=C(CN1CCOC(c2ccc(Cl)s2)C1)NCc1ccco1 (stereo not drawn),-20.98,-
CNC(=O)CCc1cc(C)nc(C2CCCCN2)n1 (stereo not drawn),-14.92,1.126
COCCN1CCCn2c(nc(CNS(C)(=O)=O)cc2=O)C1.O=C(O)C(F)(F)F,5.593,-6.553
O=C(O)C(F)(F)F.O=C(c1ccc[nH]1)N1CCn2cc(CN3CCCC3)nc2C1,-5.056,-0.721
CCN(Cc1nc2c(cnn2C)c(=O)[nH]1)c1ccc(F)cc1,-12.41,-22.74
c1csc(CNc2ccccc2Cn2cncn2)c1,-35.49,0.12
Cc1ccc(CN(C)CC2(O)CCCN(C)C2)o1 (stereo not drawn),-3.107,16.72
Cn1cc(NS(=O)(=O)c2ccc(F)c(F)c2)ccc1=O,-12.73,2.074
COCC(NC(=O)c1cnn(C)c1)c1cccc(C(F)(F)F)c1 (stereo not drawn),-60.94,-0.5473
CCn1cnnc1C1CCN(C(=O)CCCOc2ccccc2)CC1,22.03,3.928
CC(NC1(CNC(=O)Cn2cccn2)CCOCC1)c1ccccc1 (stereo not drawn),-0.08021,-1.861
CCOC(=O)Cn1cnc2nc3n(c2c1=O)CCC3,-46.9,-50.24
CC(=O)N(Cc1ncc(C(C)C)o1)C1CCN(CCn2cncn2)C1 (stereo not drawn),-,5.986
CCC(c1ccccc1)N1CCN(CCO)CC1 (stereo not drawn),-26.08,5.481
CC1CCCN(C(=O)c2ccc(-c3ccco3)o2)C1 (stereo not drawn),-40.66,-24.36
CCc1nc(CN2CCN(C(=O)N3CCCCC3)CC2)cs1,-19.69,-15.06
N#Cc1ccnc(N2CCN(CC(O)c3ccc(F)cc3)CC2)c1 (stereo not drawn),-20.29,0.4153
CN(Cc1cccnc1)c1nc(-c2ccccn2)nc2c1CCNCC2,-34.3,3.556
CCc1ccc(-c2cn(CCSc3ncn[nH]3)nn2)nc1,-10.46,2.363
CC(=O)NC(C(=O)N1CCn2cncc2C1)C(C)C (stereo not drawn),-4.199,-2.954
[H][C@]12CC[C@]([H])(CN(C(=O)c3cccnc3)C1)N(Cc1cc(C)ccc1C)C2,-39.8,-13.63
Cc1nnc2n1CCN(Cc1csc(-c3ccsc3)n1)C2,-3.576,-15.57
[H][C@@]12NCCCC[C@]1([H])N(C(=O)c1ccc(OC)cc1)C[C@H]2c1ccccc1,-13.77,-4.336
Cc1ccc(C(C)N(C)CCS(=O)(=O)CCC(N)=O)cc1 (stereo not drawn),-,2.665
CCn1nc(C)c(CN(CCOC)Cc2ccccn2)c1C,-16.17,-51.27
CCc1ocnc1C(=O)N1CCC(n2cc(-c3ccsc3)nn2)CC1,-17.62,-